# Measurements taken from the supplement of paper PMC7666118.
# By UniProt entry, the sequences of proteins in these tests, tags left out. Where a name states a change or a piece, a line headed by the entry shows the natural chain unless it says otherwise.
# UniProt O60927: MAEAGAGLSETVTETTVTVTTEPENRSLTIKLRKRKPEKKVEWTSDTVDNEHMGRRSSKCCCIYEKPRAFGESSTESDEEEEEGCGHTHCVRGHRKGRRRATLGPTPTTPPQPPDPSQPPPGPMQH
# UniProt Q8IY17: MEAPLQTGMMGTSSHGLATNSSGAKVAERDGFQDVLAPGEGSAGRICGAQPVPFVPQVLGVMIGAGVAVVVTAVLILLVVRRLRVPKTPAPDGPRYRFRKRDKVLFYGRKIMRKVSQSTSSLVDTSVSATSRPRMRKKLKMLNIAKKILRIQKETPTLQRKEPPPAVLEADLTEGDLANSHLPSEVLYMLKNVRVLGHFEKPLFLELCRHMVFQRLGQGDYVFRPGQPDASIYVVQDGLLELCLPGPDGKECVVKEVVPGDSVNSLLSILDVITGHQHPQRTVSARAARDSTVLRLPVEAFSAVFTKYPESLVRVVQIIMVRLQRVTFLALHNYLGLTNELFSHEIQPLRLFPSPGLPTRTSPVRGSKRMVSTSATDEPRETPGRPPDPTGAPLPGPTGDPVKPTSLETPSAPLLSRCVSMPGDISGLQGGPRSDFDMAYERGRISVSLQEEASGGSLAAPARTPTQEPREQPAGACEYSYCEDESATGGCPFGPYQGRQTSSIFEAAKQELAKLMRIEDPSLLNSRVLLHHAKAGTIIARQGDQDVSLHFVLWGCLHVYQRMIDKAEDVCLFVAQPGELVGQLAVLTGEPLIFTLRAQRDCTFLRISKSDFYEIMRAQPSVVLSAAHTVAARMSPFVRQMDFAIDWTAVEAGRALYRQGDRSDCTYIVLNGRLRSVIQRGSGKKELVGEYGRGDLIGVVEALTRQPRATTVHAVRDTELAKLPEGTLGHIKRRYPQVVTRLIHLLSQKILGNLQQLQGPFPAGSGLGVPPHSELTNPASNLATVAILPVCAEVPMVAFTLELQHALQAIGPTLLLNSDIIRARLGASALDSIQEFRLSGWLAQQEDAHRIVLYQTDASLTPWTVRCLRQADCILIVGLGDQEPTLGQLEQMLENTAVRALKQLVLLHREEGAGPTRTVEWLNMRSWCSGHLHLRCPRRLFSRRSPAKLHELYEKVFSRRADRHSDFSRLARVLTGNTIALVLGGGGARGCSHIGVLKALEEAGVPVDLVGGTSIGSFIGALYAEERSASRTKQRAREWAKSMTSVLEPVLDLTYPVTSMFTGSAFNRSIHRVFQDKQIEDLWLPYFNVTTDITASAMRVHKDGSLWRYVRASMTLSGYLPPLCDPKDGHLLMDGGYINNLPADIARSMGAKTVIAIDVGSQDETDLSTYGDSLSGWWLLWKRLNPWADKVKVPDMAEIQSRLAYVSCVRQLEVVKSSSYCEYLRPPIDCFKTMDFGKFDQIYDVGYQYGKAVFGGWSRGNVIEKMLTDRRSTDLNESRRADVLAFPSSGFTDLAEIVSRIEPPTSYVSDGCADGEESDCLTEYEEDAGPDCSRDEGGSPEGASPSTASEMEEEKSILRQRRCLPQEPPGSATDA
# UniProt Q86W92: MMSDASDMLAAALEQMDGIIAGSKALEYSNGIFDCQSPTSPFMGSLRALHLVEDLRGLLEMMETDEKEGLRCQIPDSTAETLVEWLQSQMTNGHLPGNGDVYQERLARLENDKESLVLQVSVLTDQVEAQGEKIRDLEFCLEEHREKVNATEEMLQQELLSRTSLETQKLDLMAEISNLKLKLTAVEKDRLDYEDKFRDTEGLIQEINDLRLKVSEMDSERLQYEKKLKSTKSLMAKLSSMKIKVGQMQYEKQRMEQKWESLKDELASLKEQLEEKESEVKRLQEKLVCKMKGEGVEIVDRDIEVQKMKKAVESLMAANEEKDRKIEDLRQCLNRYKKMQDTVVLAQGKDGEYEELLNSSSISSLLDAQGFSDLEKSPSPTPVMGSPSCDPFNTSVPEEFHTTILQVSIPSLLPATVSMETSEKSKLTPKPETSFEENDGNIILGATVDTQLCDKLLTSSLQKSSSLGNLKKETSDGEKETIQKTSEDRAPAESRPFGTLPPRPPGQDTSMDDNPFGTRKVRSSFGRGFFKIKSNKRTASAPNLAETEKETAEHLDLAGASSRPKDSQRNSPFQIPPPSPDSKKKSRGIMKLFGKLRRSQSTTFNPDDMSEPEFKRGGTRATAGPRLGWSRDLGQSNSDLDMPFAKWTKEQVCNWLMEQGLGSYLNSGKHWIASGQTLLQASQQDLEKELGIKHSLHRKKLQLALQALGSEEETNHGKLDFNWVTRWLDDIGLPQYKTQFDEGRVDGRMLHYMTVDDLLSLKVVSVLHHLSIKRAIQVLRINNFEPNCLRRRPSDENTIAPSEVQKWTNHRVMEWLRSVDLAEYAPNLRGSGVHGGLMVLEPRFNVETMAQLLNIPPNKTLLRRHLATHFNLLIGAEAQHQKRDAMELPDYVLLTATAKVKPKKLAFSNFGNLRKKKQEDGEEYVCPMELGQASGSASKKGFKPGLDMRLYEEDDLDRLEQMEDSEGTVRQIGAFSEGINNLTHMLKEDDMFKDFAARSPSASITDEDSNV
# UniProt Q8NCC3: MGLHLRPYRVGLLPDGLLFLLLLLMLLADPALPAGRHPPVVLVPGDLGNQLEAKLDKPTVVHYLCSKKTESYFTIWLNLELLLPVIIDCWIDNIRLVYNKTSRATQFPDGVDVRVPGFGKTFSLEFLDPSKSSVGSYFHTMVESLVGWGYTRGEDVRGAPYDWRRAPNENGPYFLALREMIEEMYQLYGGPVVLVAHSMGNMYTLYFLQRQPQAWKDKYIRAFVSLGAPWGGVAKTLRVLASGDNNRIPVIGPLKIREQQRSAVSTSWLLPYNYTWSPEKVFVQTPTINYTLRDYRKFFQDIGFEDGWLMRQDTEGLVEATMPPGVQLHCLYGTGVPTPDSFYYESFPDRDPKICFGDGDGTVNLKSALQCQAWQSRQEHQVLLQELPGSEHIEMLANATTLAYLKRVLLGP
# UniProt P36873, whole entry, looked up: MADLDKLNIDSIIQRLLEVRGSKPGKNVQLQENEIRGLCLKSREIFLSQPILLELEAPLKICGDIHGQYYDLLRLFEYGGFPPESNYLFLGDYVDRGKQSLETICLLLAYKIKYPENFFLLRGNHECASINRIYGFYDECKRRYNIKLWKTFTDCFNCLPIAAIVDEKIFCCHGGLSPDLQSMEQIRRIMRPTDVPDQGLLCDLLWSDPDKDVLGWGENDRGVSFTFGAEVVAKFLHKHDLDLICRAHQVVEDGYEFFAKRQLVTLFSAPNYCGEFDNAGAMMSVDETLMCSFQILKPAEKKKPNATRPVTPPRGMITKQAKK
# UniProt P62937, whole entry, looked up: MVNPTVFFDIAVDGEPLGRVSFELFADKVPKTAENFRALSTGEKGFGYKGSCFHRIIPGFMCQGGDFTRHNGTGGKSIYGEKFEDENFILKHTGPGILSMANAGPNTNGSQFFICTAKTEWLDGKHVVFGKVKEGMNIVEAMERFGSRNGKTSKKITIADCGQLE
# UniProt Q7Z3K3: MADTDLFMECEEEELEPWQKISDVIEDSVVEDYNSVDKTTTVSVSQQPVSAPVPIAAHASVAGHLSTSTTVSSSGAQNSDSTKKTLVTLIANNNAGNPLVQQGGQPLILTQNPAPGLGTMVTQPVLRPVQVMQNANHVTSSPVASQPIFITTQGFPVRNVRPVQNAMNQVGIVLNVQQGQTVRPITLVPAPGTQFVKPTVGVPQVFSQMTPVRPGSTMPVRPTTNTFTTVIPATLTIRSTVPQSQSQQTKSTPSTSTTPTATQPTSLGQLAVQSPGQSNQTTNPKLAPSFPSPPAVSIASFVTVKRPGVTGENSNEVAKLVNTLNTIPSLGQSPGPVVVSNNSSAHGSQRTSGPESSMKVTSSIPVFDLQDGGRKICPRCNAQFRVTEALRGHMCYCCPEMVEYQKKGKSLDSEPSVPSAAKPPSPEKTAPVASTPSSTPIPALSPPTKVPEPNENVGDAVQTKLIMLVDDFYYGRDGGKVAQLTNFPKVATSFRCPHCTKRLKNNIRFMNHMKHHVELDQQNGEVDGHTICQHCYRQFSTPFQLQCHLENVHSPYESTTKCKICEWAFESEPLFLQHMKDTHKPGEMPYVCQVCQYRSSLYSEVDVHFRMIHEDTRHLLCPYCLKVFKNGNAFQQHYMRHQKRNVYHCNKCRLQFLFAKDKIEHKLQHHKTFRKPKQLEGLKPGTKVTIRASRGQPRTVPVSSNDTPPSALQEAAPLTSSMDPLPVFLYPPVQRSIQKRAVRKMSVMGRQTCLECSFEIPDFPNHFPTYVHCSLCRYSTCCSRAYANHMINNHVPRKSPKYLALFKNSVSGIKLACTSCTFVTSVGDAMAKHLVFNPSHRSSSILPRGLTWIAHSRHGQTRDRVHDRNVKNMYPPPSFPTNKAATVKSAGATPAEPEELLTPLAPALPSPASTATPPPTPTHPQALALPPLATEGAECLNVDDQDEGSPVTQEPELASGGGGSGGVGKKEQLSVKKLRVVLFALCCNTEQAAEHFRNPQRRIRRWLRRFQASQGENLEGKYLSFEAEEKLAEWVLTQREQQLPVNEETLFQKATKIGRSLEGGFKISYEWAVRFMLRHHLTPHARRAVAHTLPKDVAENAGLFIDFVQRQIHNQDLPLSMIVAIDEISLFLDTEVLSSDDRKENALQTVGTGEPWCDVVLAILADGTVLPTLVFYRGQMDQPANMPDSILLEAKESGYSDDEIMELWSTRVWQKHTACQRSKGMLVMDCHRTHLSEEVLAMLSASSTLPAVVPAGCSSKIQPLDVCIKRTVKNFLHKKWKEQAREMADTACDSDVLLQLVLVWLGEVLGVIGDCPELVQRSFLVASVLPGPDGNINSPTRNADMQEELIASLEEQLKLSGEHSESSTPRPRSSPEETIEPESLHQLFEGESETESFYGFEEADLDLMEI
# UniProt Q06190: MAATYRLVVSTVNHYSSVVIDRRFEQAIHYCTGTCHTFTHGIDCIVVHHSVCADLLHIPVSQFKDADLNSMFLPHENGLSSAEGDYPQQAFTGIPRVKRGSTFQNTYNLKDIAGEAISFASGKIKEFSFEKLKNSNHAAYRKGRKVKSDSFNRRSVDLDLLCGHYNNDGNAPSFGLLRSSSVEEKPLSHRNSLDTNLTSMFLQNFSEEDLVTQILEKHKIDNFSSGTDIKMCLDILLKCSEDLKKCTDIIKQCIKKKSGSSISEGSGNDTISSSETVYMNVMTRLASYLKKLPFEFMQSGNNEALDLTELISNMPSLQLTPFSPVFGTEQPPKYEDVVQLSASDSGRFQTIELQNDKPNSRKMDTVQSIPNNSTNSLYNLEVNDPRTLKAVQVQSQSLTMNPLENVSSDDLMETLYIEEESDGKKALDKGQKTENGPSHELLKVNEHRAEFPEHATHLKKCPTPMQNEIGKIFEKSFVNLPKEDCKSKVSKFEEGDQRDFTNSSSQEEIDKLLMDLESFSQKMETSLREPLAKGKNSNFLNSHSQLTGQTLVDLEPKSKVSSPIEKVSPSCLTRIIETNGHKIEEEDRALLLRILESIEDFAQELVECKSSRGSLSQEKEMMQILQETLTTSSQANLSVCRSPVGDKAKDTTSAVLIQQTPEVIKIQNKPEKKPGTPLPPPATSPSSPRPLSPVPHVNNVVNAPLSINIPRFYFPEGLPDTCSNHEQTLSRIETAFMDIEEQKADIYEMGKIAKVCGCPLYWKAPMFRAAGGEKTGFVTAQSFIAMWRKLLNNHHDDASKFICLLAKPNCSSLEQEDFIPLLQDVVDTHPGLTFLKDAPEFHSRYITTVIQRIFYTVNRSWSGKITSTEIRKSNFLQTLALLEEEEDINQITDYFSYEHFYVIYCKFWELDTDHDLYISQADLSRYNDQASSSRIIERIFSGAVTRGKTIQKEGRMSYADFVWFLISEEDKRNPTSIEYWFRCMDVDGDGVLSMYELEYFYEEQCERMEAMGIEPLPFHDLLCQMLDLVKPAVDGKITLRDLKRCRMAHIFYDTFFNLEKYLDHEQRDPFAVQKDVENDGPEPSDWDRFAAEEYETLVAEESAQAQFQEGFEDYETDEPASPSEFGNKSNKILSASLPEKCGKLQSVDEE
# This is one part of the list.
# Compound: COc1ccc(Cn2ccc3ccc(C(=O)NO)cc32)cc1
# Test: dose-dependent thermal stabilisation call (2D-TPP, DLPTP, 10% FDR) (binary (1 = stabilised)); higher = stabilised by the compound
# Settings: system: HL-60 intact cells; concentration range 0.04-10 µM
row,Target,dose-dependent thermal stabilisation call
1,PPP1R11 (UniProt O60927),inactive: 0
2,PRDX6 (UniProt P30041),inactive: 0
3,PRKRIP1 (UniProt Q9H875),inactive: 0
4,PNPLA6 (UniProt Q8IY17),inactive: 0
5,PRKACB (UniProt P22694),inactive: 0
6,PI4KA (UniProt P42356),inactive: 0
7,PREPL (UniProt Q4J6C6),inactive: 0
8,PPFIBP1 (UniProt Q86W92),inactive: 0
9,PLA2G15 (UniProt Q8NCC3),inactive: 0
10,PICALM (UniProt Q13492),inactive: 0
11,PLD3 (UniProt Q8IV08),inactive: 0
12,POLR2L (UniProt P62875),inactive: 0
13,PREB (UniProt Q9HCU5),inactive: 0
14,PPP1CC (UniProt P36873),inactive: 0
15,PNKP (UniProt Q96T60),inactive: 0
16,PKP4 (UniProt Q99569),inactive: 0
17,PGK2 (UniProt P07205),inactive: 0
18,POLR2I (UniProt P36954),inactive: 0
19,PLS1 (UniProt Q14651),inactive: 0

# 2 records drawn at random from the list so far, as already listed:
row,Target,dose-dependent thermal stabilisation call
4,PNPLA6 (UniProt Q8IY17),inactive: 0
5,PRKACB (UniProt P22694),inactive: 0

# (list continues)

row,Target,dose-dependent thermal stabilisation call
1,PRKAB1 (UniProt Q9Y478),inactive: 0
2,PRC1 (UniProt O43663),inactive: 0
3,PPIA (UniProt P62937),inactive: 0
4,PRKRIR (UniProt O43422),inactive: 0
5,PMM2 (UniProt O15305),inactive: 0
6,POGZ (UniProt Q7Z3K3),inactive: 0
7,PLSCR3 (UniProt Q9NRY6),inactive: 0
8,PLXNA1 (UniProt Q9UIW2),inactive: 0
9,PPA2 (UniProt Q9H2U2),inactive: 0
10,PPP2R3A (UniProt Q06190),inactive: 0
11,PRIM1 (UniProt P49642),inactive: 0
12,PPP2CA (UniProt P67775),inactive: 0
13,PPAPDC2 (UniProt Q8IY26),inactive: 0
14,POLR3E (UniProt Q9NVU0),inactive: 0
15,PPP2R2D (UniProt Q66LE6),inactive: 0
16,PKP1 (UniProt Q13835),inactive: 0
17,PIGN (UniProt O95427),inactive: 0
18,PIAS4 (UniProt Q8N2W9),inactive: 0
19,PIR (UniProt O00625),inactive: 0
